The other results are listed elsewhere or left out. Plates or batches differ in their baseline, so values are only roughly comparable.
Tested on: E18 rat cortical neuron-glia co-culture
Assay: total nuclei (DAPI) / Olig2+ nuclei (ratio); higher = more depletion of OPC/OL lineage cells
Settings: treatment time: 8 days (DIV5-DIV13)

| SMILES | total nuclei (1 µM) | total nuclei (5 µM) |
| --- | --- | --- |
| CC(C)C[C@H](NC(=O)[C@@H](O)[C@H](N)Cc1ccccc1)C(=O)O [Ubenimex] | 2.55 | 2.7 |
| Cc1cccc(C)c1NC(=O)C1CCCCN1C (stereo not drawn) [Mepivacaine] | 2.8 | 2.8 |
| CCCCNc1cc(C(=O)O)cc(S(N)(=O)=O)c1Oc1ccccc1 [Bumetanide] | 2.76 | 2.8 |
| CCOC(=O)C1=C(C)NC(C)=C(C(=O)OC)C1c1cccc(Cl)c1Cl (stereo not drawn) [Felodipine] | 4.37 | 9.2 |
| CC1(C)S[C@@H]2[C@H](NC(=O)[C@H](N)c3ccccc3)C(=O)N2[C@H]1C(=O)O [Ampicillin] | 4.01 | 3.9 |
| O=C(O)COCCN1CCN(C(c2ccccc2)c2ccc(Cl)cc2)CC1 (stereo not drawn) [Virlix] | 3.78 | 3.7 |
| Nc1nc(=O)[nH]cc1F [Flucytosine] | 4.98 | 4.7 |
| Nc1nc(O)c2ncn(CCC(CO)CO)c2n1 [Penciclovir] | 2.75 | 2.7 |
| CCN(CC)CC#CCOC(=O)C(O)(c1ccccc1)C1CCCCC1 (stereo not drawn) [Oxybutynin] | 2.98 | 3.4 |
| CCn1cc(C(=O)O)c(=O)c2cc(F)c(N3CCNCC3)cc21 [Norfloxacin] | 2.7 | 3.6 |
| Cc1c(O)c(=O)ccn1C [Deferiprone] | 4.2 | 5.7 |
| C=CC1=C(C(=O)O)N2C(=O)[C@@H](NC(=O)/C(=N\O)c3csc(N)n3)[C@H]2SC1 [Cefdinir] | 2.96 | 3.1 |
| COc1cc2nc(N(C)CCCNC(=O)C3CCCO3)nc(N)c2cc1OC (stereo not drawn) [Alfuzosin] | 4.3 | 4.6 |
| COCC1=C(C(=O)OC(C)OC(=O)OC(C)C)N2C(=O)[C@@H](NC(=O)/C(=N\OC)c3csc(N)n3)[C@H]2SC1 (stereo partly drawn) [Cefpodoxime proxetil] | 4.12 | 5.2 |

Entries of single compounds from above.
Cc1c(O)c(=O)ccn1C [Deferiprone] as listed: total nuclei (1 µM): 4.2; total nuclei (5 µM): 5.7
Nc1nc(O)c2ncn(CCC(CO)CO)c2n1 [Penciclovir] as listed: total nuclei (1 µM): 2.75; total nuclei (5 µM): 2.7
